Reference: PubChem BioAssay AID1347423 (Functional Genomics Laboratory (NCATS/FGL), 2020)
Screen size: about 52,000 sequences; about 210 (0.4%) were called active.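 The calls were made as follows: active = gene whose silencing raises cell survival under the drug, median off-target-corrected z-score across its silencing RNAs 2 or more; inactive = the rest.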 The list shows a part of the results.

Assay: Resistance to Poly (ADP-Ribose) Polymerase inhibitor: Gene Identification via Genome-wide siRNA Screen
Conditions: mouse BRCA2 R2336H ES cells, olaparib, CellTiter-Glo viability; active compounds read high
In short: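 Mouse BRCA2 R2336H ES cells were reverse-transfected with siRNA (20 nM final), treated at 48 h with 500 nM olaparib, and read by CellTiter-Glo after 72 h. Scores: MAD-based z per siRNA, median per gene, seed off-target correction.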

| Sequence | z-score |
| --- | --- |
| GGAUCCACAACUCCAGCUUTT against 3300002I08Rik | inactive: -1.35 |
| GGGAUUUGAGUUCUGGAGCTT against Fbxo44 | inactive: 1.65 |
| GCUGGGAGUAAAAUUGACUTT against Cenpj | inactive: -0.21 |
| GGAAUCAUAUAGACAGGUCTT against Smurf2 | inactive: 0.59 |
| CCCUGGGACUUUCCUAGUGTT against Glt8d2 | inactive: 0.565 |
| GGCUGCAUUUAAUGUUUUATT against Siat7c | inactive: -1.15 |
| GGGUGACCUAAAGAAUUAATT against Csda | inactive: 0.665 |
| GGGAAAAUAACGUGACUGATT against Olfr1270 | inactive: -1.92 |
| GGUGUCCAAGAUAAUUUGUTT against Gusb | inactive: -0.324 |
| GGCACUAAUGGAGAGACUGTT against Nr6a1 | inactive: -2.8 |
| GCAUUGGUAACCAAAUCAUTT against 2610318G18Rik | inactive: 0.233 |
| GGCAUUGGUGAAUCAUAUGTT against Olfr51 | inactive: 0.117 |
| GGACAAACUGGUCAUCGGGTT against Mrps28 | inactive: -0.864 |
| GCAAUUGCGUAUCGUAAAUTT against Epha4 | inactive: 0.0823 |
| GGAGUCUUUCAUUGAAGAATT against Snx12 | inactive: 0.224 |
| GGUAGACAAGAUCAUCGGATT against Dsc3 | inactive: -0.183 |
| GGUUAUUUGGAAGUGCUACTT against Esx1 | inactive: -0.558 |
| GCCUCAAGUUGAUAAGGAUTT against 4922504M18Rik | inactive: 0.956 |
| GGUUAGUAUGUAGCUCCCATT against Olfr982 | inactive: 0.662 |
| GCAAAUAUUACCUGAAAGUTT against Hkr3 | inactive: -0.853 |
| GGUGACAGAUUCUUUGAGGTT against BC019943 | inactive: -0.362 |
| CCUGCUCUAUGGCAGAACGTT against Nkx2-4 | inactive: -1.49 |
| GCAUAUGGAUAAGAUUGUUTT against C920006C10Rik | inactive: -2.37 |
| GGUGUAAUUGCCUUGAAGGTT against Il17e | inactive: 1.28 |
| CGCUGCUUUUCCUAGCAGATT against D730049H07Rik | inactive: 1.01 |
| GGCCAUUAACUUAAGUUUGTT against Tcte1l | inactive: 0.0794 |

| Sequence | z-score |
| --- | --- |
| GCAGACCUAACUAAGCUUUTT against V2r15 | inactive: -0.261 |
| GAGAUAAGAUGGGAAAAAATT against Ssbp2 | inactive: -0.46 |
| GGUAUAUGCGGAUCCUGAUTT against Limk2 | inactive: -1.57 |
| GCCUAAGAAAUUAGUGAAUTT against 3110032G18Rik | inactive: -1.42 |
| GGAAUAAUGAGGUUAUUGATT against Olfr695 | inactive: 0.59 |
| GGAAAGCUUUCUUCACCUGTT against Olfr206 | inactive: 1.36 |
| GGAACAAAGACUUCAAAGATT against Olfr323 | inactive: -0.934 |
| GGCGAUGUAAUGGAUGUUATT against Nck1 | inactive: 0.914 |
| CCUGAUAAGUAUGAGUCCATT against Mag | inactive: -0.986 |
| GGCUGGAUACUCAGUGCUATT against 1700095H12 | inactive: -0.312 |
| GGCAGUUAUCUCCUAAUGCTT against 6720457D02Rik | inactive: -0.203 |
| GCACUCACCAGUGAGUCAUTT against Cldn6 | inactive: 1.16 |
| GGCUGUGGAAAUGUUUAUUTT against Cirbp | inactive: 0.67 |
| GGGUUGAUUAGUGGAGUGATT against H2-Bl | inactive: 1.44 |
| GCAACUUGACCAGGAAUAUTT against Ddx52 | inactive: -1.45 |
| GGAGCUUGGGUUUAAGAUATT against C130052G03Rik | inactive: 1.04 |
| GCAGAACCGCCAACCAACATT against 5930405J04Rik | inactive: -0.682 |
| GGUCUUGUGCAUAAAACAGTT against 1810009K13Rik | inactive: 0.316 |
| GGUGAUCUGUAGGAACACATT against 9530053A07Rik | inactive: -0.892 |
| GGUGAAUCUAUUUACCUGCTT against 4921509E07Rik | inactive: -0.438 |
| GGCUAUGGCUGAUAAGCAUTT against BC048502 | inactive: 0.543 |
| GGCCUCAUCAUGUGUUCAATT against App | inactive: -0.226 |
| GGCAUACCCACAACUGAUGTT against Aarsl | inactive: -0.766 |
| GUUGCCUAUCAUUUGUAGATT against Olfr1052 | inactive: -0.485 |
| GGCCAUAUCGUUCACUCACTT against Slc18a3 | inactive: 0.112 |
| GGAAAAGAAAUGAUGGAGUTT against Dnajc9 | inactive: 0.355 |

Laid out differently: entries from further up.
GGUUAGUAUGUAGCUCCCATT against Olfr982
  z-score: inactive: 0.662
GCAAAUAUUACCUGAAAGUTT against Hkr3
  z-score: inactive: -0.853
GGUGACAGAUUCUUUGAGGTT against BC019943
  z-score: inactive: -0.362
CCUGCUCUAUGGCAGAACGTT against Nkx2-4
  z-score: inactive: -1.49

Looked up one by one from the entries so far, 2 records:

| Sequence | z-score |
| --- | --- |
| GGGUUGAUUAGUGGAGUGATT against H2-Bl | inactive: 1.44 |
| GGUAUAUGCGGAUCCUGAUTT against Limk2 | inactive: -1.57 |

Single values from the list:
For z-score, GGUAGACAAGAUCAUCGGATT against Dsc3 is entered as inactive: -0.183
For z-score, CGCUGCUUUUCCUAGCAGATT against D730049H07Rik is entered as inactive: 1.01

Additional records

| Sequence | z-score |
| --- | --- |
| GGUGGUGAUAUUUAUUGUGTT against Olfr1 | inactive: 1.79 |
| GUGAAUGUGCCAUUUACUUTT against BC017612 | inactive: 1.46 |
| GGAGGAAGAAUAUGGAAAATT against Ptprz1 | inactive: 0.652 |
| GGUCCUUUGAUGCUGACUGTT against Sfrp4 | inactive: -0.159 |
| GCCCUAUCGUUCUGAAAUATT against Galc | inactive: -0.0877 |
| CCUAGCUCUCUAGAAUAGATT against Msn | inactive: -0.0384 |
| GGGCAGCUCAUGUCCUAUATT against Scfd2 | inactive: -0.732 |
| GGAGAGGUUUAGUAAUUACTT against Trim21 | inactive: 0.05 |
| GGAGCCUGUUCCAGAAUUGTT against Bcl7c | inactive: 0.579 |
| GGUUUUGAAUACAAAAAGGTT against Copg2 | inactive: -0.514 |
| GGAAAAGGAAACCCAGAGCTT against Tdg | inactive: 0.903 |
| CGCAACAGCUAGGAUUUUUTT against Mod1 | inactive: 1.09 |
| GGAGGAAGACCUGAAGAAGTT against Gck | inactive: -1.6 |
| GGGCCUUGUUCCUCUUGAATT against 3110005P07Rik | inactive: -1.86 |
| GGUGGCCUUACAAAUGCCATT against Dph2l1 | inactive: 0.792 |
| GGAGCUGCGCAGUUUAGAATT against Rab24 | inactive: -0.24 |
| GCUCAGCUCAAAUGCGGUUTT against 4931431C16Rik | inactive: 0.12 |
| GCUAUUCCAACAUGAAUCCTT against Klk21 | inactive: 1.41 |
| GGUCAAUCUUUGGAGUAUUTT against Stk39 | inactive: -0.594 |
| CGUCUGUUUACCUCAUGAATT against Arid3a | inactive: 1.07 |
| GGGAUUUUCAAAGUGAGAATT against Pmaip1 | inactive: 0.313 |
| CCAAGAUUACUGAACCUACTT against Lin28 | inactive: 0.056 |
| GGUUUGUCAGGUUCUAAAATT against Atf1 | inactive: 2.2 |
| GCUAGGAUUAAUGAGGAAATT against Cul3 | inactive: -0.494 |
| GGUGAAAACAAUGACUUUGTT against BC038156 | inactive: 0.269 |
| CGGUCACACAAAAAACAGATT against AU019823 | inactive: -1.51 |

| Sequence | z-score |
| --- | --- |
| CCCUAUUUUAACCGUGUUATT against 7420416P09Rik | inactive: 1.13 |
| GGGAGCAAAUGUAAUUUAUTT against Tbpl1 | inactive: 0.12 |
| GCCUGGAUUCAGAAGCUACTT against Ugt1a1 | inactive: 0.72 |
| GGAACAGAUGUGGUUAUAATT against 2010002H18Rik | inactive: -0.406 |
| GGACUGCUGUCACCAUUUCTT against Gpr132 | inactive: 0.238 |
| GGAAGGAGUAUGGCAGGAGTT against Fbxo17 | inactive: -0.207 |
| GGCUGGACACUUCAAAAUGTT against 4930412M03Rik | inactive: 0.00325 |
| GGCCUUGUGUGCAAUGAGATT against Mfge8 | inactive: -2.18 |
| GCAGAUCAACAAAUAGGAUTT against 5630401J11Rik | inactive: 2.02 |
| GGAAGAAAUCAUCCACAACTT against Bid | inactive: -0.787 |
| GGUAUAAGACCUUUUCAACTT against Olfr509 | inactive: 1.38 |
| GGGUGAAGUAGGUGAAAAATT against H2-M10.6 | inactive: -1.85 |
| GGAGGAAGAGCUCAUUGCATT against Tnnt1 | inactive: -1.56 |
| GGCCAAGGGAAAAAAACCCTT against Pax7 | inactive: 0.0209 |
| GCCUACAGAGUCUUAGUUATT against 2400003B06Rik | inactive: 0.0277 |
| CCAUUGUAGUCAGUCAAAUTT against Pip | inactive: 0.839 |
| UACCCGAAUGCAGACAGGATT against Raet1a | inactive: -0.322 |
| GGGACUCAGAAUCCACACUTT against Olfr1046 | inactive: -2.43 |
| GGACUCAGCACUCUUUUGCTT against E130311K13 | inactive: -0.167 |
| GGAUAGUUUUGUGUUUGAUTT against Gab2 | inactive: 0.199 |
| GACUACACUGAUUUUUCAUTT against Olfr980 | inactive: 0.00576 |
| GGCUGAGUCCUAAUAGCCUTT against 4930565A21Rik | inactive: -1.05 |
| CCCUAUUCUGCUUUCACUUTT against Sap18 | inactive: -0.0919 |
| CGAUUAUGAGCACUAUAUUTT against Ddx20 | inactive: 0.484 |
| GCACUUAUGCCAGAUUGGCTT against Ifi35 | inactive: -0.00551 |
| GGUUGGCAGCGUGGUAACUTT against 3110045G13Rik | inactive: -1.33 |
